Experimental data: PubChem BioAssay AID540256 (National Center for Advancing Translational Sciences (NCATS), 2011)
In all, about 300,000 compounds went through this assay and about 3,700 (1.2%) were called active. The shares of active, inactive and inconclusive entries below differ from those in the screen. Calls follow the shape of the full dose curve; tested in HEK293 cells. Potencies beside an inconclusive call are fits to weak or partial responses and may not hold up.
Potency is read from the fitted curve at half-maximal effect.

Assay: qHTS for Inhibitors of binding or entry into cells for Lassa Virus; also: nearly all actives have a fitted effect of over 50% in size
Settings: Lassa virus pseudotype entry inhibition, cell reporter; series mostly up to 37.9 µM
With `CC1=C(C(=O)Nc2ccccc2)C(C(C)C)n2nc(SCc3ccccc3C)nc2N1` (stereo not given) the Potency was “inactive”. For `Cc1noc(C)c1C(=O)OCC(=O)c1cc(C)n(Cc2ccccc2Cl)c1C`, the Potency was inconclusive: 6.51 µM [activator, single point]. For `CCc1nc2ccccc2c(C(=O)OCC(=O)N(CCOC)c2c(N)n(Cc3ccccc3)c(=O)[nH]c2=O)c1C`, the Potency was “inactive”. With `COC(=O)c1ccccc1NC(=O)Cn1nnc(-c2ccc(OC)cc2)n1` the Potency was inconclusive: 22.4 µM [inhibitor, single point]. With `CCOC(=O)c1cn(Cc2ccc(Br)cc2)nn1` the Potency was inconclusive: 1.26 µM [inhibitor, single point]. With `CC(C)(C)CC(=O)Nc1nnc(CCc2ccccc2)s1` the Potency was inconclusive: 7.94 µM [activator, partial curve, poor fit]. For `CN(CC(=O)Nc1ccccc1Br)C(=O)c1ccccc1OCc1ccc(Cl)cc1`, the Potency was inconclusive: 25.1 µM [inhibitor, single point]. For `Cc1ccc(S(=O)(=O)N2CCOCC2)cc1C(=O)Nc1ccc(N2CCCCCC2)cc1`, the Potency was inconclusive: 11.2 µM [inhibitor, partial curve, poor fit]. With `CCCCc1nn2c(=O)cc(COC(=O)c3ccc4c(c3)OCO4)nc2s1` the Potency was “inactive”. For `CCc1cc(=O)oc2cc3oc(C)c(C)c3cc12`, the Potency was inconclusive: 16.4 µM [activator, single point]. With `COCCn1c(=O)[nH]c2cc(C(=O)Nc3cc(C)cc(C)c3)ccc2c1=O` the Potency was inconclusive: 35.5 µM [inhibitor, single point]. In the case of `Cc1ccc(-c2nnc(NC(=O)c3ccc([N+](=O)[O-])o3)o2)c(C)c1`, the Potency is reported as “inactive”. With `CC(=O)Oc1ccc(-c2ccc(C(=O)NCCc3ccc(S(N)(=O)=O)cc3)cc2)cc1` the Potency was “inactive”. With `Cc1ccc(NC(=O)c2oc3ccccc3c2COC(C)C)cc1S(=O)(=O)N1CCOCC1` the Potency was inconclusive: 3.98 µM [inhibitor, single point]. With `Cc1n[nH]c(C)c1S(=O)(=O)N1CCCC(C(=O)N2CCN(c3ccc(Cl)cc3)CC2)C1` (stereo not given) the Potency was inconclusive: 6.31 µM [activator, single point]. With `Cc1cc(C)n2nc(C(=O)N/N=C/c3ccc(Cl)cc3)nc2n1` the Potency was “inactive”. With `O=c1[nH]c2ccccc2c(=O)n1-c1ccc(Cl)cc1Cl` the Potency was inconclusive: 12.6 µM [inhibitor, single point]. For `CCOc1ccc(N(CC(=O)NCc2ccccc2)S(=O)(=O)c2ccc(C)cc2)cc1`, the Potency was inconclusive: 3.55 µM [inhibitor, single point]. For `CCCNC(=O)Cn1nc(-c2ccc(C)cc2)c2cnc3ccc(CC)cc3c21`, the Potency was inconclusive: 5.62 µM [activator, single point]. In the case of `CCc1ccc(Nc2nc(C)cc(C)n2)cc1`, the Potency is reported as “inactive”. In the case of `CCCCCCCCCCOC(=O)Cn1c(COc2ccccc2C)[n+](C)c2ccccc21`, the Potency is reported as active: 8.91 µM. In the case of `COc1cccc(/C=N/NC(=O)c2cccc([N+](=O)[O-])c2)c1OS(=O)(=O)c1ccccc1`, the Potency is reported as inconclusive: 0.0651 µM [inhibitor, full curve, poor fit]. With `COc1ccc(C2C=C(c3ccccc3)Nc3nnnn32)cc1` (stereo not given) the Potency was inconclusive: 0.58 µM [activator, full curve]. With `CCCc1nc2ccccc2c(C(=O)OCC(=O)NCc2ccc3c(c2)OCO3)c1CC` the Potency was inconclusive: 18.4 µM [inhibitor, partial curve, poor fit]. In the case of `Cc1occc1C(=O)Nc1ccccc1NC(=O)c1ccoc1C`, the Potency is reported as “inactive”. With `COc1ccc(NC(=O)c2cc(-c3ccc(F)cc3)no2)cc1OC` the Potency was “inactive”. In the case of `COc1ccccc1NS(=O)(=O)c1cc(NC(=O)c2ccncc2)ccc1N1CCCC1`, the Potency is reported as inconclusive: 8.91 µM [inhibitor, partial curve]. For `CC(=O)c1cccc(N/C=C\C(=O)c2ccc(C)cc2)c1`, the Potency was active: 7.94 µM. In the case of `COc1ccccc1CNC(=O)CN(C)S(=O)(=O)c1ccc(F)cc1`, the Potency is reported as “inactive”. For `Cc1[nH]c2ccccc2c1/C=C/C(=O)c1ccccc1`, the Potency was inconclusive: 22.4 µM [inhibitor, single point]. For `O=C(O)Cc1sc(Nc2cccc3ccccc23)nc1-c1ccc(Cl)cc1`, the Potency was inconclusive: 7.08 µM [inhibitor, full curve, poor fit]. In the case of `COc1cc(C2c3[nH]c4ccccc4c3CC3COC(=O)N32)cc(OC)c1O` (stereo not given), the Potency is reported as inconclusive: 0.282 µM [inhibitor, full curve, poor fit]. In the case of `C=CCSC(=S)Nc1c(C)n(C)n(-c2ccccc2)c1=O`, the Potency is reported as “inactive”. In the case of `Cc1cccc(Cn2cccc(C(=O)Nc3nc4ccccc4s3)c2=O)c1`, the Potency is reported as “inactive”. For `COc1ccc(NC(=O)C(c2ccccc2)N(C)C(=O)/C=C\c2ccc3c(c2)OCO3)cc1` (stereo not given), the Potency was inconclusive: 8.91 µM [inhibitor, partial curve]. For `COc1ccccc1N1CCN(C2CCN(C(=O)COc3ccccc3)CC2)CC1`, the Potency was inconclusive: 35.5 µM [activator, single point]. With `CC(C)CN1CCN(Cc2cnc(N3CCOCC3)s2)CC1CCO` (stereo not given) the Potency was inconclusive: 7.08 µM [inhibitor, full curve, poor fit]. With `COc1cccc(-c2cc(C(=O)N3CCN(C(=O)c4ccco4)CC3)on2)c1` the Potency was “inactive”. In the case of `Fc1ccc(-c2nc3ccncc3[nH]2)cc1`, the Potency is reported as “inactive”. In the case of `CCOC(=O)c1c(NC(=O)CN2CCN(C(=O)c3ccco3)CC2)sc(C)c1C`, the Potency is reported as active: 11.2 µM. For `CC(=O)Nc1ccc(S(=O)(=O)c2c(N)n(CCN3CCOCC3)c3nc4ccccc4nc23)cc1`, the Potency was inconclusive: 0.891 µM [inhibitor, full curve, poor fit]. With `O=C(Nc1ccc(NC(=O)c2sc3ccccc3c2Cl)cc1)c1ccco1` the Potency was “inactive”. For `O=C(Nc1nc2ccccc2s1)C1CC(=O)N(c2ccc(F)cc2)C1` (stereo not given), the Potency was inconclusive: 0.259 µM [inhibitor, single point]. For `Cc1cccc(C(=O)N/N=C/c2ccoc2)c1`, the Potency was “inactive”. In the case of `O=C(C[C@H]1C(=O)N(Cc2ccccc2)C[C@@H]1Cc1ccccc1)Nc1ccccc1`, the Potency is reported as active: 15.8 µM.
